{
  "source": "patent US20260151358A1",
  "about": "“METHODS OF TREATING, AMELIORATING, AND/OR PREVENTING STRESS-RELATED DISORDER” (Yale University, priority 2022, published 2026)",
  "test_system": "dlPFC Delay cells",
  "assay": "Single unit recording with iontophoresis of dlPFC Delay cells in monkeys performing the ODR working memory task",
  "format": "in vivo, rhesus macaques",
  "excerpt": "The physiological contributions of LTCC and β1-AR signaling were examined at the cellular level in rhesus macaques performing the oculomotor delayed response (ODR) spatial working memory task (FIG. 4A) to determine how they influence the neuronal firing needed for working memory and higher cognition. Recordings were made from the caudal principal sulcus (FIG. 4B) using an iontophoretic electrode (FIG. 4C) that allows minute ejection of charged compounds onto the neuron being recorded. The dlPFC contains “Delay cells” that are able to fire across the length of the delay period while the subject is remembering a location (FIG. 4D); this persistent firing is spatially tuned for the neuron's preferred direction, thus representing visual space in working memory. The effects of β1-AR-Cav1.2 signaling on dlPFC “Delay cell” firing were tested using single unit recordings coupled with iontophoresis in adult and aged rhesus monkeys performing the ODR task using repeated measures analyses. Aged monkeys have naturally-occurring calcium dysregulation, and thus are particularly useful for examining agents that reduce calcium signaling. As there are no compounds selective for Cav1.2, these experiments used agents targeting all LTCCs (i.e. Cav1.2 and Cav1.3 in dlPFC).",
  "key": {"[1]": {"settings": "high doses (30-50 nA), iontophoresis"}, "[2]": {"settings": "low doses (5-20n.A), iontophoresis"}},
  "note": "At least one compound was matched to its structure with a doubt left.",
  "data": [
    {"smiles": "COc1ccc([C@@H]2Sc3ccccc3N(CCN(C)C)C(=O)[C@@H]2OC(C)=O)cc1", "note": "[diltiazem, cis-(+)-[2-(2-dimethylaminoethyl)-5-(4-methoxyphenyl)-3-oxo-6-thia-2-azabicyclo[5.4.0]undeca-7,9,11-trien-4-yl]ethanoate]", "values": [
      {"measurement": "effect on the xamoterol-induced reduction of Delay cell firing", "setting": "co-iontophoresis, reversal (S9b)", "result": "reversed"},
      {"measurement": "delay firing for the preferred direction", "setting": "[1]", "result": "reduced delay firing"},
      {"measurement": "spatial tuning (d′)", "setting": "[1]", "result": "reduced spatial tuning"},
      {"measurement": "delay-related firing", "setting": "[2]", "result": "increasing"},
      {"measurement": "d′ measures of spatial tuning", "setting": "[2]", "result": "increasing"},
      {"measurement": "effect on the xamoterol-induced reduction of Delay cell firing", "setting": "pretreatment, 13 Delay cells", "result": "blocked"}
    ]}
  ]
}
